{"sequences": {"note": "Sequences of proteins named here, by UniProt entry; tags and fusion partners are left off. A change or cut given only in a name is not applied to a line headed by its entry.", "UniProt P18054": "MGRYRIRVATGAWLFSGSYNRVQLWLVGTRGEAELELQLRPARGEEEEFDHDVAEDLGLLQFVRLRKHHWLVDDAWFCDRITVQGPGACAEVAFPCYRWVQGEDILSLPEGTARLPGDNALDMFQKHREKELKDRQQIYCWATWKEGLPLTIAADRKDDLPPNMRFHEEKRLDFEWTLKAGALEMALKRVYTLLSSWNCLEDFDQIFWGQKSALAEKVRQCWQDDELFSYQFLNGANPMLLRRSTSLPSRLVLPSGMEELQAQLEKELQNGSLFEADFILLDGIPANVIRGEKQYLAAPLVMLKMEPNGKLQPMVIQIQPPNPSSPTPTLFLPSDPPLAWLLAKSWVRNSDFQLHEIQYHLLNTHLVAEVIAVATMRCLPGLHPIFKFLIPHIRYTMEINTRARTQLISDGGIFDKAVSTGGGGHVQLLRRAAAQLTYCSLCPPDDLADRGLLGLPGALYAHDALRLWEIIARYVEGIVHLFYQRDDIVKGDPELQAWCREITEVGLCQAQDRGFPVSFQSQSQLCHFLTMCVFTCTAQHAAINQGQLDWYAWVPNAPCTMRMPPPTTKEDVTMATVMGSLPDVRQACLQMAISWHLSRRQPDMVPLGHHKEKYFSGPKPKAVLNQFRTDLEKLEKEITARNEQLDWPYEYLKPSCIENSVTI"}, "source": "PubChem BioAssay AID1671190", "about": "(National Center for Advancing Translational Sciences (NCATS), 2021)", "note": "Among all 580,000 compounds or so, about 6,100 (1.1%) were called active. The shares of active, inactive and inconclusive entries below differ from those in the screen. The call rests on the fitted dose curve; in most records, active means well fitted inhibition curve with a large enough effect; inconclusive means small, poorly fitted or top-dose-only effect, or another doubt; inactive means no such curve, though single readings can be large or run the other way. A potency beside an inconclusive call is a rough fit, not a confirmed value. On the % scale 0 is the no-effect control and ±100 the full control effect; potency means the concentration at half of the fitted maximal effect."}
{"target": "Polyunsaturated fatty acid lipoxygenase ALOX12 (Homo sapiens) (UniProt P18054)", "assay": "Primary qHTS assay for inhibitors of human arachidonate 12S-lipoxygenase (ALOX12): Round 2", "conditions": "purified 12hLO, xylenol orange hydroperoxide absorbance; activity change, negative = inhibition: at 108 µM (top of the series) unless noted", "in_short": "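Hydroperoxide product was detected by ferrous iron/xylenol orange as the 573 to 405 nm absorbance ratio. Arachidonic acid at 40 uM (final) was turned over for 30 min at room temperature by 150 nM human 12hLO, pH 7.0 Hepes buffer, after 15 min compound preincubation.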"}
{"smiles": "O=C(CCSCc1cccc(Cl)c1)NCCc1ccc(Cl)cc1", "Potency": "inconclusive: 50.1 µM [inhibitor, partial curve, poor fit]"}
{"smiles": "CCOC(=O)C1CCN(c2ncnc3c2[nH]c2cccc(OC)c23)CC1", "Potency": "inactive"}
{"smiles": "CCCC(=O)Nc1nn2c(CC(C)C)nnc2s1", "Potency": "active: 25.1 µM"}
{"smiles": "CCc1ccc(N(CC)C(=O)c2ccc3c(Cl)c4c(nc3c2)CCC4)cc1", "Potency": "inconclusive: 100 µM [inhibitor, single point]"}
{"smiles": "NC(=O)C[n+]1cccc2ccccc21", "Potency": "inconclusive: 56.2 µM [inhibitor, partial curve, poor fit]"}
{"smiles": "CCOc1ccc(C(=O)OCC(=O)NC2CCCC2)cc1OCC", "Potency": "inconclusive: 89.1 µM [inhibitor, single point]"}
{"smiles": "CN1CCN(CC(O)COc2ccc(C34CC5CC(CC(C5)C3)C4)cc2)CC1", "note": "(centres undefined)", "Potency": "inconclusive: 50.1 µM [inhibitor, partial curve, poor fit]"}
{"smiles": "COc1ccccc1-c1cc2nc(C)c(CCC(=O)NCc3ccc(C)cc3)c(C)n2n1", "Potency": "inconclusive: 158 µM [inhibitor, single point]"}
{"smiles": "Cc1ccc(C)c(NC(=O)CN2CCN(Cc3ccco3)CC2)c1", "Potency": "inactive"}
{"smiles": "Cc1ccc2nc(N(CCCN(C)C)C(=O)COc3ccc(Cl)cc3)sc2c1", "Potency": "inconclusive: 70.8 µM [inhibitor, partial curve, poor fit]"}
{"smiles": "Nc1nc(N)c2c(ccc3c2ccn3Cc2cccc([N+](=O)[O-])c2)n1", "Potency": "inconclusive: 50.1 µM [inhibitor, partial curve, poor fit]"}
{"smiles": "Nc1cccc2c1C(=O)N(CCOc1ccccc1F)C2=O", "Potency": "inconclusive: 126 µM [inhibitor, single point]"}
{"smiles": "O=C(COc1ncnc2scc(-c3ccc(F)cc3)c12)NCc1ccco1", "Potency": "inactive"}
{"smiles": "CC(=O)Oc1ccc(OC(C)=O)c2ccccc12", "Potency": "inconclusive: 50.1 µM [inhibitor, partial curve, poor fit]"}
{"smiles": "O=C(Nc1ccc(NC(=O)c2ccc3c(c2)OCO3)cc1)c1cccc(Cl)c1", "Potency": "inconclusive: 112 µM [inhibitor, single point]"}
{"smiles": "OC1(CN2CCN(c3cccc(C(F)(F)F)c3)CC2)CNCCOC1", "note": "(centres undefined)", "Potency": "inconclusive: 7.08 µM [inhibitor, full curve]"}
{"smiles": "COc1ccc(C(=O)C(C)Cl)cc1", "note": "(centres undefined)", "Potency": "inconclusive: 35.5 µM [inhibitor, partial curve, poor fit]"}
{"smiles": "CSc1ccc(/C=N/n2c(C)nnc2C)cc1", "Potency": "inactive"}
{"smiles": "Cn1nc(CC(=O)NCc2cccc3ccccc23)c2ccccc2c1=O", "Potency": "inactive"}
{"smiles": "COc1cc(OC)cc(C(=O)NCC2CCCO2)c1", "note": "(centres undefined)", "Potency": "inactive"}
{"smiles": "CC(=O)c1cc(F)ccc1Oc1nc(C)nc2sc3c(c12)CCC3", "Potency": "inconclusive: 112 µM [inhibitor, single point]"}
{"smiles": "CCCOc1ccc(NC(=O)Cc2ccccc2)c2cccnc12", "Potency": "inconclusive: 35.5 µM [inhibitor, partial curve, poor fit]"}
{"smiles": "CN(C(=O)C(C)(C)C)C1c2c(ccc3ccccc23)OCC1CO", "note": "(centres undefined)", "Potency": "inconclusive: 70.8 µM [inhibitor, partial curve, poor fit]"}
{"smiles": "CC1CN(CC(=O)Nc2ccc(Br)cn2)CC(C)O1", "note": "(centres undefined)", "Potency": "inconclusive: 50.1 µM [inhibitor, full curve, poor fit]"}
{"smiles": "CC(=O)c1ccc(-n2cc(-c3ccccc3)cc2-c2ccccc2)cc1", "Potency": "inconclusive: 50.1 µM [inhibitor, partial curve, poor fit]"}
{"smiles": "COc1cc(C)ccc1OCc1cc(C(=O)N(C)Cc2ncccc2C)no1", "Potency": "inactive"}
{"smiles": "COCCCn1c(C)cc(C(=O)N2CCCC(c3[nH]ccc3C(N)=O)C2)c1C", "note": "(centres undefined)", "Potency": "inconclusive: 31.6 µM [inhibitor, single point]"}
{"smiles": "CCCOC(=O)C1=C(C)N(C)C(=O)NC1c1cc(Cl)c(O)c(OC)c1", "note": "(centres undefined)", "Potency": "inconclusive: 112 µM [inhibitor, single point]"}
{"smiles": "Oc1c(CN2CCOCC2)cc(COCc2ccccc2)c2cccnc12", "Potency": "inconclusive: 25.1 µM [inhibitor, partial curve]"}
{"smiles": "CC1CCN(C(=O)C(=O)N2CCN(c3nc(C(C)C)c4c(c3C#N)CCCC4)CC2)CC1", "Potency": "inconclusive: 28.2 µM [inhibitor, partial curve, poor fit]"}
{"smiles": "COc1ccc(C=O)cc1OCc1c(F)cccc1Cl", "Potency": "inconclusive: 17.8 µM [inhibitor, partial curve, poor fit]"}
{"smiles": "O=C(CN1CCCCC1)NC(=O)NCc1ccccc1", "Potency": "inconclusive: 4.47 µM [inhibitor, full curve, poor fit]"}
{"smiles": "COC(=O)NC(=S)Nc1ccc(Oc2ccc(Cl)cc2)c(Cl)c1", "Potency": "inconclusive: 44.7 µM [inhibitor, partial curve, poor fit]"}
{"smiles": "O=c1[nH]c(=S)[nH]c2c1C(c1ccc(F)cc1)OC(CCc1ccccc1)C2", "note": "(centres undefined)", "Potency": "inconclusive: 39.8 µM [inhibitor, partial curve, poor fit]"}
{"smiles": "Cc1ccc(CN2CCC(CN(C)C(=O)c3ccc(C4CCCN4)s3)CC2)o1", "note": "(centres undefined)", "Potency": "inconclusive: 20 µM [inhibitor, partial curve, poor fit]"}
{"smiles": "CCCOc1ccc(C(=O)NC(=S)Nc2nc(C)c(C(=O)N(C)C)s2)cc1", "Potency": "inconclusive: 5.62 µM [inhibitor, full curve, poor fit]"}
{"smiles": "COc1cccc(C(=O)c2sc(Nc3cc(C)cc(C)c3)nc2N)c1", "Potency": "inactive"}
{"smiles": "CCc1ccc(NC(=S)N2CCCC2)cc1", "Potency": "inconclusive: 126 µM [inhibitor, single point]"}
{"smiles": "Cn1c(=O)n(C)c2cc(N3CCOCC3)c(NS(=O)(=O)c3cccc(C#N)c3)cc21", "Potency": "inconclusive: 39.8 µM [inhibitor, partial curve, poor fit]"}
{"smiles": "O=C(NCCc1ccc(Cl)cc1)C1CCN(S(=O)(=O)c2ccc3[nH]ccc3c2)CC1", "Potency": "inconclusive: 56.2 µM [inhibitor, partial curve, poor fit]"}
{"smiles": "COc1ccc(-c2nn(-c3ccccc3)cc2C(=O)Nc2cccc(C(=O)O)c2)cc1[N+](=O)[O-]", "Potency": "inconclusive: 158 µM [inhibitor, single point]"}
{"smiles": "Cn1c(=O)c2[nH]c(=S)n(Cc3ccccc3)c2n(C)c1=O", "Potency": "inconclusive: 44.7 µM [inhibitor, partial curve, poor fit]"}
{"smiles": "CN(Cc1cccs1)C(=O)CCc1ccccc1", "Potency": "inactive"}
{"smiles": "CCC(=O)Nc1nc2c(C)cc(NS(=O)(=O)c3cccc(Cl)c3C)cc2s1", "Potency": "inconclusive: 35.5 µM [inhibitor, single point]"}
{"smiles": "COC(=O)[C@@]1(Cc2ccc(OC)cc2)[C@H]2c3cc(C(=O)N4CCCC4)n(Cc4ccccc4)c3C[C@H]2CN1C(=O)c1ccccc1", "Potency": "inconclusive: 112 µM [inhibitor, single point]"}
{"smiles": "COC(=O)C1=C(C)N(Cc2cccc(C(F)(F)F)c2)C(=NCc2ccc3c(c2)OCO3)NC1c1ccc(Cl)cc1", "note": "(centres undefined)", "Potency": "inconclusive: 44.7 µM [inhibitor, partial curve, poor fit]"}
{"smiles": "CC(NC(C(=O)c1ccccc1)c1ccccc1)c1ccccc1", "note": "(centres undefined)", "Potency": "inconclusive: 31.6 µM [inhibitor, partial curve, poor fit]"}
{"smiles": "COc1cc(/C=C/C(=O)Nc2nnc(CC(C)(C)C)s2)cc(OC)c1OC", "Potency": "inconclusive: 44.7 µM [inhibitor, partial curve, poor fit]"}
{"smiles": "Cc1onc(-c2ccccc2Cl)c1C(=O)c1ccccc1", "activity change, negative = inhibition": "inconclusive: -33.4% [inhibitor]"}
{"smiles": "CCOC(=O)C(CC)Sc1nc2c(c(=O)[nH]c(=O)n2C)n1C/C=C(/C)Cl", "note": "(centres undefined)", "Potency": "inconclusive: 20 µM [inhibitor, partial curve, poor fit]"}
{"smiles": "COC(=O)CC1OCC=C2CN3CCC45C6=CC(=O)C(=O)C([N+](=O)[O-])=C6NC4C1C2CC35", "note": "(centres undefined)", "Potency": "inconclusive: 50.1 µM [inhibitor, partial curve, poor fit]"}
{"smiles": "Cc1cccc2c(C(=O)O)cc(-c3ccc(-c4ccccc4)cc3)nc12", "Potency": "inconclusive: 25.1 µM [inhibitor, partial curve]"}
{"smiles": "CCC1CCCCN1C(=O)COc1cccc2c1CCN(C)C2=O", "note": "(centres undefined)", "Potency": "inactive"}
{"smiles": "N#CC1=C(N)SC(N)=C(C#N)C1C1C=CCCC1", "note": "(centres undefined)", "Potency": "inconclusive: 56.2 µM [inhibitor, partial curve, poor fit]"}
{"smiles": "O=C(O)[C@H]1CC=C[C@H]2CCN(Cc3ccc(Cl)c(Cl)c3)C(=O)[C@@H]12", "Potency": "inconclusive: 44.7 µM [inhibitor, partial curve]"}
{"smiles": "CCOc1cc(C(=O)NC(=S)Nc2ccc(Cl)c(C(=O)O)c2)cc(OCC)c1OCC", "Potency": "inconclusive: 126 µM [inhibitor, partial curve, poor fit]"}
{"smiles": "COC(=O)c1ccccc1-c1ccc(/C=N/NC(N)=O)o1", "Potency": "inactive"}
{"smiles": "O=C(COC(=O)c1ccc2ccccc2n1)Nc1cccc(Cl)c1", "Potency": "inconclusive: 50.1 µM [inhibitor, single point]"}
{"smiles": "COCCn1nnnc1C(c1ccccc1OC)N1CCN(c2ccccc2)CC1", "note": "(centres undefined)", "Potency": "inconclusive: 35.5 µM [inhibitor, single point]"}
{"smiles": "COc1ccc(-c2nc(CSCC(=O)NCc3ccccc3Cl)c(C)o2)cc1OC", "Potency": "inactive"}
{"smiles": "Fc1ccc(-c2nnc(SCc3ncc(-c4ccccc4)o3)n2CC2CCCO2)cc1", "note": "(centres undefined)", "Potency": "inconclusive: 79.4 µM [inhibitor, partial curve, poor fit]"}
{"smiles": "CCn1cc(CNC(=O)NC2CCCCC2)c(C)n1", "Potency": "inactive"}
{"smiles": "COc1ccccc1N1CCN(C(=O)c2ccc3ncsc3c2)CC1", "Potency": "inactive"}
{"smiles": "O=C(NCc1cccc(C(F)(F)F)c1)c1cc(-c2ccccc2)nn1CC1CC(c2cccnc2)=NO1", "note": "(centres undefined)", "Potency": "inconclusive: 50.1 µM [inhibitor, partial curve, poor fit]"}
